These results are taken from PMC5642548.

This experiment concerns the target TGIF1 (TGFB induced factor homeobox 1), full length, Flag-tagged (human (cDNA from HEK293T)), Q15583. The experiment in a line: co-IP; HEK293FT cells co-transfected for 48 h; lysate in TNE buffer (20 mM Tris-HCl pH 7.4, 150 mM NaCl, 2 mM EDTA, 1 % Triton X-100); precipitated with anti-Flag antibody and protein A-Sepharose overnight at 4°C; anti-Myc immunoblotting. The conditions noted are these: remark: other sources report otherwise. A general note: In western blotting, separated proteins are transferred to a membrane and probed.

Results are given in words; binding and its absence hold for the method and conditions named. In cells and extracts the contact can be indirect. Some results given as binding are weak or reduced against the parent protein; the word gives no strength.

B1: β-catenin, P35222 1-781 (protein)
chain: MATQADLMELDMAMEPDRKAAVSHWQQQSYLDSGIHSGATTTAPSLSGKGNPEEEDVDTSQVLYEWEQGFSQSFTQEQVADIDGQYAMTRAQRVRAAMFPETLDEGMQIPSTQFDAAHPTNVQRLAEPSQMLKHAVVNLINYQDDAELATRAIPELTKLLNDEDQVVVNKAAVMVHQLSKKEASRHAIMRSPQMVSAIVRTMQNTNDVETARCTAGTLHNLSHHREGLLAIFKSGGIPALVKMLGSPVDSVLFYAITTLHNLLLHQEGAKMAVRLAGGLQKMVALLNKTNVKFLAITTDCLQILAYGNQESKLIILASGGPQALVNIMRTYTYEKLLWTTSRVLKVLSVCSSNKPAIVEAGGMQALGLHLTDPSQRLVQNCLWTLRNLSDAATKQEGMEGLLGTLVQLLGSDDINVVTCAAGILSNLTCNNYKNKMMVCQVGGIEALVRTVLRAGDREDITEPAICALRHLTSRHQEAEMAQNAVRLHYGLPVVVKLLHPPSHWPLIKATVGLIRNLALCPANHAPLREQGAIPRLVQLLVRAHQDTQRRTSMGGTQQQFVEGVRMEEIVEGCTGALHILARDVHNRIVIRGLNTIPLFVQLLYSPIENIQRVAAGVLCELAQDKEAAEAIEAEGATAPLTELLHSRNEGVATYAAAVLFRMSEDKPQDYKKRLSVELTSSLFRTEPMAWNETADLGLDIGAQGEPLGYRQDDPSYRSFHSGGYGQDALGMDPMMEHEMGGHHPGADYPVDGLPDLGHAQDLMDGLPPGDSNQLAWFDTDL
As to B1, the binding result was “binds”.
